Laboratory results taken from PubChem BioAssay AID1508612.

Experiment: passive permeability, PAMPA, ADME assay (AID 1508612)
Details: pH 7.4, 30.0 min, 50.0 µM

Row | Structure (SMILES) | Papp
1 | CCNC(=O)C[C@@H]1N=C(c2ccc(Cl)cc2)c2cc(OC)ccc2-n2c(C)nnc21 | 334 ×10⁻⁶ cm/s
2 | COc1ccc2[nH]c3c(C)c4ccncc4c(C)c3c2c1 | > 1000 ×10⁻⁶ cm/s
